Data as given in the supplement of paper PMC7024190.
This is one part of the list. Repeats in this data set agree poorly, so a single value says little.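 The cells were human embryonic kidney cells carrying a Renilla luciferase gene, driven by the HSV-TK promoter, on a plasmid put in briefly by transfection. This is the first-round screen of about ten thousand compounds, looking for ones that raise reporter output.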

These compounds were tested on HEK 293FT (assay: log relative Renilla luciferase luminescence (reporter expression vs reference, reference not stated) (log (base not stated)); higher = higher recombinant reporter expression). Conditions: 10 µM; time after transfection 48 h.

Row | Compound | log
1 | C[C@@H](O)[C@H]1C(=O)N2C(C(=O)O)=C(S[C@@H]3CN[C@H](C(=O)N(C)C)C3)[C@H](C)[C@H]12 | 0.103
2 | O=c1ncc(F)c[nH]1 [5-fluoro-2-pyrimidone] | -0.0949
3 | NC(=O)N1c2ccccc2CC(=O)c2ccccc21 [Trileptal] | 0.101
4 | COc1cc(C[C@@H](CO)[C@H](CO)Cc2ccc(O)c(OC)c2)ccc1O | 0.0325
5 | CC1=C(C(=O)O)N2C(=O)[C@@H](NC(=O)[C@H](N)c3ccccc3)[C@H]2SC1 [Cephalexin monohydrate] | -0.185
6 | CC(Oc1c(Cl)cccc1Cl)C1=NCCN1 (stereo not given) | 0.0618
7 | O=C(O)CCNC(=O)c1ccc(/N=N/c2ccc(O)c(C(=O)O)c2)cc1 | 0.0907
8 | Clc1ccc2c(c1)CCc1cccnc1C2=C1CCNCC1 | 0.0247
9 | CN1CCCCC1CCN1c2ccccc2Sc2ccc([S+](C)[O-])cc21 (stereo not given) [Mesoridazine] | 0.208
10 | Nc1nc(Cl)nc2c1ncn2[C@@H]1O[C@H](CO)[C@@H](O)[C@H]1O | -0.311
11 | CCCN[C@H]1CCc2nc(N)sc2C1 [Pramipexole] | 0.0127
12 | C[C@@H]1CN(CCCn2c3ccccc3c3ccccc32)C[C@H](C)N1 [Rimcazole] | 0.24
13 | Nc1ncnc2c1ncn2[C@@H]1O[C@H](CO)C[C@@H]1O [3'-deoxydenosine] | 0.229
14 | Cc1c2oc3c(C)ccc(C(=O)N[C@@H]4C(=O)N[C@H](C(C)C)C(=O)N5CCC[C@H]5C(=O)N(C)CC(=O)N(C)[C@@H](C(C)C)C(=O)O[C@@H]4C)c3nc-2c(C(=O)N[C@@H]2C(=O)N[C@H](C(C)C)C(=O)N3CCC[C@H]3C(=O)N(C)CC(=O)N(C)[C@@H](C(C)C)C(=O)O[C@@H]2C)c(N)c1=O | -1.2
15 | CC(C)NCC(O)COc1ccc(COCCOC(C)C)cc1 (stereo not given) | -1.34
16 | CC(C)OC(=O)CCC/C=C\C[C@@H]1[C@@H](CC[C@@H](O)CCc2ccccc2)[C@H](O)C[C@@H]1O | -0.126
17 | CN1CCC(=C2c3ccccc3CC(=O)c3sccc32)CC1 | 0.143
18 | CN(CCO)CC(O)Cn1cnc2c1c(=O)n(C)c(=O)n2C (stereo not given) | 0.171
19 | CN(C)CCN(Cc1ccccc1)c1ccccn1 | -0.0234
20 | O=c1c(O[C@@H]2O[C@H](CO)[C@H](O)[C@H](O)[C@H]2O)c(-c2ccc(O)c(O)c2)oc2cc(O)cc(O)c12 | -0.176

10 structures out of the list, ordered by molecular weight, falling.
Row | Compound | log
14 | Cc1c2oc3c(C)ccc(C(=O)N[C@@H]4C(=O)N[C@H](C(C)C)C(=O)N5CCC[C@H]5C(=O)N(C)CC(=O)N(C)[C@@H](C(C)C)C(=O)O[C@@H]4C)c3nc-2c(C(=O)N[C@@H]2C(=O)N[C@H](C(C)C)C(=O)N3CCC[C@H]3C(=O)N(C)CC(=O)N(C)[C@@H](C(C)C)C(=O)O[C@@H]2C)c(N)c1=O | -1.2
20 | O=c1c(O[C@@H]2O[C@H](CO)[C@H](O)[C@H](O)[C@H]2O)c(-c2ccc(O)c(O)c2)oc2cc(O)cc(O)c12 | -0.176
9 | CN1CCCCC1CCN1c2ccccc2Sc2ccc([S+](C)[O-])cc21 (stereo not given) [Mesoridazine] | 0.208
12 | C[C@@H]1CN(CCCn2c3ccccc3c3ccccc32)C[C@H](C)N1 [Rimcazole] | 0.24
8 | Clc1ccc2c(c1)CCc1cccnc1C2=C1CCNCC1 | 0.0247
17 | CN1CCC(=C2c3ccccc3CC(=O)c3sccc32)CC1 | 0.143
10 | Nc1nc(Cl)nc2c1ncn2[C@@H]1O[C@H](CO)[C@@H](O)[C@H]1O | -0.311
3 | NC(=O)N1c2ccccc2CC(=O)c2ccccc21 [Trileptal] | 0.101
13 | Nc1ncnc2c1ncn2[C@@H]1O[C@H](CO)C[C@@H]1O [3'-deoxydenosine] | 0.229
2 | O=c1ncc(F)c[nH]1 [5-fluoro-2-pyrimidone] | -0.0949

(cont.)

Row | Compound | log
21 | C#C[C@]1(O)CC[C@H]2[C@@H]3[C@H](C)CC4=C(CCC(=O)C4)[C@H]3CC[C@@]21C | -0.122
22 | CN(C)CCC(c1ccc(Cl)cc1)c1ccccn1 (stereo not given) [Chlorpheniramine] | -0.0697
23 | O=C(O)c1cc(/N=N/c2ccc(S(=O)(=O)Nc3ccccn3)cc2)ccc1O | -0.302
24 | CC(=O)O[C@@]12CO[C@@H]1C[C@H](O)[C@@]1(C)C(=O)[C@H](O)C3=C(C)[C@@H](OC(=O)[C@H](O)[C@@H](NC(=O)OC(C)(C)C)c4ccccc4)C[C@@](O)([C@@H](OC(=O)c4ccccc4)[C@H]21)C3(C)C | 0.0755
25 | O=c1n(CCCN2CCN(c3cccc(Cl)c3)CC2)nc2ccccn12 | 0.106
26 | CC(=O)Nc1ccc(CC(=O)O)cc1 | -0.0135
27 | CN(C)CC/C=C1/c2ccccc2COc2ccc(CC(=O)O)cc21 | 0.146
28 | Oc1ccc(C2CNCCc3c2cc(O)c(O)c3Cl)cc1 (stereo not given) | -0.0676
29 | CC[N+](C)(CC)CCOC(=O)C(O)(c1ccccc1)C1CCCCC1 (stereo not given) | 0.175
30 | N[C@@H]1CONC1=O | 0.0603
31 | Fc1ccc([C@@H]2CCNC[C@H]2COc2ccc3c(c2)OCO3)cc1 [Paroxetine] | -0.0129
32 | CN(C)CC[C@@H](c1ccc(Cl)cc1)c1ccccn1 | 0.159
33 | Cn1nnc2c(C(N)=O)ncn2c1=O | 0.0308
34 | CCCCCCNC(=O)n1cc(F)c(=O)[nH]c1=O | 0.0407
35 | CNCC[C@H](Oc1cccc2ccccc12)c1cccs1 | 0.154
36 | CCCN1CCCC[C@H]1C(=O)Nc1c(C)cccc1C | 0.146
37 | CN1CCN(C2=Nc3cc(F)ccc3Cc3ccccc32)CC1 [Fluperlapine] | 0.172
38 | C[C@H](CCC(=O)O)[C@H]1CC[C@H]2[C@@H]3C(=O)C[C@@H]4CC(=O)CC[C@]4(C)[C@H]3CC(=O)[C@]12C | -0.0614
39 | CCOC(=O)N1CCC(=C2c3ccc(Cl)cc3CCc3cccnc32)CC1 | 0.101
40 | Clc1ccc(CO/N=C(\Cn2ccnc2)c2ccc(Cl)cc2Cl)c(Cl)c1 | -0.28
